The other results are listed elsewhere or left out. The data scatter; read single values as rough.
compound: ClCC(=O)N[C@@H]1CCCc2ccccc12; test: log2 mean competition ratio of IA-DTB cysteine labelling (DMSO/compound) (log2 ratio); higher = stronger cysteine engagement by compound; conditions: 50 µM; treatment time: 4 h; cell line lysate: HEK293T
Protocol: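 IA-DTB competitive cysteine chemoproteomics in HEK293T RIPA lysate. Lysates were treated with compound 29 or 30 at 50 or 200 µM for 4 h, then IA-DTB (500 µM, 1 h), trypsin-digested, NeutrAvidin-enriched and analysed by diaPASEF. Competition ratio = intensity DMSO / intensity compound (n=4 treated, n=64 DMSO); binding: mean log2 CR ≥ 1 and p ≤ 0.05 plus QC filters. Target is the cysteine site.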

Amino acid sequences for entries named in this document (tags omitted). A change or cut given only in a name is not applied to a line headed by its entry. Residues count along the entry.
UniProt O14965: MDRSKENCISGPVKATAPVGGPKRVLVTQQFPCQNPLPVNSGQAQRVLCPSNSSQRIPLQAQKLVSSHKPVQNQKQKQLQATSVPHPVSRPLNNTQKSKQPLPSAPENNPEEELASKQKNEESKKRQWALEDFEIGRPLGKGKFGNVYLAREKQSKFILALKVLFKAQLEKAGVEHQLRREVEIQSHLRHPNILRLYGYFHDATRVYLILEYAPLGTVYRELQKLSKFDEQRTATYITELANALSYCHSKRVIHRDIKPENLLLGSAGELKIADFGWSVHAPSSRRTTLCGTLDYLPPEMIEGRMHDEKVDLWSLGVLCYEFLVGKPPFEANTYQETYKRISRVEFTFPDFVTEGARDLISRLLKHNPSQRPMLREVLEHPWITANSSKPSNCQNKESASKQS
UniProt Q6PL18: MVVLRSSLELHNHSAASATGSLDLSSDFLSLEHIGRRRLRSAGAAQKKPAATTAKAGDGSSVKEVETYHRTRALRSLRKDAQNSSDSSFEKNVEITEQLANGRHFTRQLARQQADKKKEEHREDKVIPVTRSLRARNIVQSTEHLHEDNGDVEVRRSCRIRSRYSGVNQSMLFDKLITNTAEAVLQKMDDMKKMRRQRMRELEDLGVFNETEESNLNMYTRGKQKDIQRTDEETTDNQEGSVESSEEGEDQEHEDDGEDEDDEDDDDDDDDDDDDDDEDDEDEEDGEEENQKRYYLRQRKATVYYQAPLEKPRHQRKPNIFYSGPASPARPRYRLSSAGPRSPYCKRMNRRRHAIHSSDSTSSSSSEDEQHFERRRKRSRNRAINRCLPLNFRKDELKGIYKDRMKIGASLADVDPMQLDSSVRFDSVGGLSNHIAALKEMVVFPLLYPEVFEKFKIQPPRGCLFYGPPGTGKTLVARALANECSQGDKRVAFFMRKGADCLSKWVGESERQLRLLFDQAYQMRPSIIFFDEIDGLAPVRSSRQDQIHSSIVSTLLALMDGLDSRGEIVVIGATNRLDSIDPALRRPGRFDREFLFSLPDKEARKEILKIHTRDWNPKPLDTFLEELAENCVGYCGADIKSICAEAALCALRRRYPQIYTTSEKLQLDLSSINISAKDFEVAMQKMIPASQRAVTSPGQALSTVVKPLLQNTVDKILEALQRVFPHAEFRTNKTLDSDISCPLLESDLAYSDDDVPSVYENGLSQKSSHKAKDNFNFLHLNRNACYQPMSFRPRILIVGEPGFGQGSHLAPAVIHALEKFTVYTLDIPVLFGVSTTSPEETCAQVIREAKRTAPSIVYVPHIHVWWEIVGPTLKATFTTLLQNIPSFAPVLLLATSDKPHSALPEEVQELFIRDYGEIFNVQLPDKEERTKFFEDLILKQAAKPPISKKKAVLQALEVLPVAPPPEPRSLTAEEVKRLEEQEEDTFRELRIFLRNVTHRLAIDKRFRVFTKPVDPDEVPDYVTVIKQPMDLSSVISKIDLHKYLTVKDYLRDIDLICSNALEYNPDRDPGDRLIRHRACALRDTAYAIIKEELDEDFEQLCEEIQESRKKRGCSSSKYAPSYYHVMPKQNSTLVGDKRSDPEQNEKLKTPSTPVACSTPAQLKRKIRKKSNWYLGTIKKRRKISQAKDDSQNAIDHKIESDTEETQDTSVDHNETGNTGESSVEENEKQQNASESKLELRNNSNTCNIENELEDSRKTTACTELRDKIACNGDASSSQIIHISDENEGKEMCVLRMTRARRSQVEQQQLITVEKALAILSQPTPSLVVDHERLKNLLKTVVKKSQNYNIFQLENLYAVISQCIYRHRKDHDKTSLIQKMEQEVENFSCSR
UniProt Q8TBE0: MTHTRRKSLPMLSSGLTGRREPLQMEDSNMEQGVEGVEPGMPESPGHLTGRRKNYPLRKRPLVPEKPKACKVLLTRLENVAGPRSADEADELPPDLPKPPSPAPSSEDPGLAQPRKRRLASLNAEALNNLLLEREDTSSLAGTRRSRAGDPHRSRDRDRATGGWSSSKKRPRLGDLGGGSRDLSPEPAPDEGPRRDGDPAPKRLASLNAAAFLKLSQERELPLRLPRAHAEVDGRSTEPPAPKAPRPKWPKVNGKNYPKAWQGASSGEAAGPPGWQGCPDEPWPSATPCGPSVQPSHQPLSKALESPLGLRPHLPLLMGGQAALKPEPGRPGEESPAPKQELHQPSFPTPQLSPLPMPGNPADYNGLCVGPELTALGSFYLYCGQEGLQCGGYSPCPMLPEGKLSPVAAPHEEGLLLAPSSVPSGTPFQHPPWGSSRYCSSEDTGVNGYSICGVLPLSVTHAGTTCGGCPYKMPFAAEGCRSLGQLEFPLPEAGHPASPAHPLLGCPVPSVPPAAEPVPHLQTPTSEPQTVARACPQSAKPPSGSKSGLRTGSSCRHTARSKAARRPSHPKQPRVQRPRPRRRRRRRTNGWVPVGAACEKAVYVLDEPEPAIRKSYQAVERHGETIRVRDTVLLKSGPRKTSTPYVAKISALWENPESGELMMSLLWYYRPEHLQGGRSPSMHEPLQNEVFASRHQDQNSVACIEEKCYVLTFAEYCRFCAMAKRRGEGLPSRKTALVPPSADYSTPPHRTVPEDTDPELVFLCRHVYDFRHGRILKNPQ
UniProt Q9UI12: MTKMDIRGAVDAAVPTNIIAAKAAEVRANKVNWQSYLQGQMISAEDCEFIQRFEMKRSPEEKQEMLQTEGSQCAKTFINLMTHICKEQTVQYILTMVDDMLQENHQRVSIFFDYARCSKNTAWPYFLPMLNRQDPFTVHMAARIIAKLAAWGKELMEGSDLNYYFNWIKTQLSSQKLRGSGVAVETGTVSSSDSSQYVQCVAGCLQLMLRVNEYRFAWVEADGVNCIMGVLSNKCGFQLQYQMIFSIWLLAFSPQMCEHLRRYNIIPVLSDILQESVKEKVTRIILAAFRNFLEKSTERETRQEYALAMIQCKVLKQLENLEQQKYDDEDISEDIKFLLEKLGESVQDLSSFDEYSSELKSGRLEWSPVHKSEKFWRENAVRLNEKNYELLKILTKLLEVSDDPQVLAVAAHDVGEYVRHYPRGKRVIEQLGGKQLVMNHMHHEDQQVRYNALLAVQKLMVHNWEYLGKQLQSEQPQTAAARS
UniProt Q14457, whole entry, looked up: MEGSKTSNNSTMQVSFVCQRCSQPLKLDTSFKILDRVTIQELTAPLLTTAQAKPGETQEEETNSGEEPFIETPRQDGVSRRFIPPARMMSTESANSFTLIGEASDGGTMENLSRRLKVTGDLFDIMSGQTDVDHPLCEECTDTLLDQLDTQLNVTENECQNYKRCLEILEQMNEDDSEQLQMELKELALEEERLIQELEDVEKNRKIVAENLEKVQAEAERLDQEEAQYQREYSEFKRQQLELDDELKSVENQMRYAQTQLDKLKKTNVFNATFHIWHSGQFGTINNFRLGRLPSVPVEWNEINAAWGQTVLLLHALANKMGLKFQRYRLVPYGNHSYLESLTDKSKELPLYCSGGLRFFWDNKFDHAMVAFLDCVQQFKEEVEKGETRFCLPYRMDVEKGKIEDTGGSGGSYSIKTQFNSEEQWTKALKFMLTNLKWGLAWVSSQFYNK
UniProt Q8TD16, 415-438: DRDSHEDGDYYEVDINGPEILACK
UniProt Q9H7F0: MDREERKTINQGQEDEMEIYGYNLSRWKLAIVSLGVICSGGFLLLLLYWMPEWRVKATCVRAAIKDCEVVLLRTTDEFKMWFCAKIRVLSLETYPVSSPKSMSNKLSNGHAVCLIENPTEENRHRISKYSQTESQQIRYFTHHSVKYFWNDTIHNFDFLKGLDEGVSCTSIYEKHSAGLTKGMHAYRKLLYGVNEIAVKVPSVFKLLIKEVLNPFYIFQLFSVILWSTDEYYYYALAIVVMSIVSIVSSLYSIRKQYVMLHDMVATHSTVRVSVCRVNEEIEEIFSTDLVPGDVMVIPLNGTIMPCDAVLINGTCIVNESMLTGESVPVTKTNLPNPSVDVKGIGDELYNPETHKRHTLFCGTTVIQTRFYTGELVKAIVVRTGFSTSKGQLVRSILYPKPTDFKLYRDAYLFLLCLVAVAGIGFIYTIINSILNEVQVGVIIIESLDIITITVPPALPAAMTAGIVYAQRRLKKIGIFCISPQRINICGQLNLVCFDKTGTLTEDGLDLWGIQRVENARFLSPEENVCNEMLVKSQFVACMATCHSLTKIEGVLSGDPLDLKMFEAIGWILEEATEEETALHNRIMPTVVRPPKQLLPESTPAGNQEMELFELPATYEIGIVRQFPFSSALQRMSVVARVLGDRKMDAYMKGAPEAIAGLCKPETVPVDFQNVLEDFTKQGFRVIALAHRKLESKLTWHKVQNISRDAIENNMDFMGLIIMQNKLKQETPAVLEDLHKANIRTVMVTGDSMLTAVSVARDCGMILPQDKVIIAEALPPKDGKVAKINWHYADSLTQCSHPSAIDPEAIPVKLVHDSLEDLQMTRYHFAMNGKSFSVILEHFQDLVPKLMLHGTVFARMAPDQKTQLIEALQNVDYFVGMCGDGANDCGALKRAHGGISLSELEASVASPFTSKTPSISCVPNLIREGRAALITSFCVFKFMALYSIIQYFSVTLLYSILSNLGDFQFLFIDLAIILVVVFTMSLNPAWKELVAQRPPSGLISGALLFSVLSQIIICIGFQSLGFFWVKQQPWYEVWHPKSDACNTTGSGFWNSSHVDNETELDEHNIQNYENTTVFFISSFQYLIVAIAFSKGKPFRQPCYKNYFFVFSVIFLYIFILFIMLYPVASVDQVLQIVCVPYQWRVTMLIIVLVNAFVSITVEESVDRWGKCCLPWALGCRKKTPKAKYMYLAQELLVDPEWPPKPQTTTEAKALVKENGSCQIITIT
UniProt Q7Z5W3: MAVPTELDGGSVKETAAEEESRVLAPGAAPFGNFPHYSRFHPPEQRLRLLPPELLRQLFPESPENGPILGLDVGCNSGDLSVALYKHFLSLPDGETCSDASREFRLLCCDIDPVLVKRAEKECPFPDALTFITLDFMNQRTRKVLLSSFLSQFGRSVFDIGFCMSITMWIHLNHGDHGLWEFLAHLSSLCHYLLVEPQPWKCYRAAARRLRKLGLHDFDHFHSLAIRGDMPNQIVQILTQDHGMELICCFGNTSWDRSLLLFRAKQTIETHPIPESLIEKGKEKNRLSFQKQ
UniProt Q676U5: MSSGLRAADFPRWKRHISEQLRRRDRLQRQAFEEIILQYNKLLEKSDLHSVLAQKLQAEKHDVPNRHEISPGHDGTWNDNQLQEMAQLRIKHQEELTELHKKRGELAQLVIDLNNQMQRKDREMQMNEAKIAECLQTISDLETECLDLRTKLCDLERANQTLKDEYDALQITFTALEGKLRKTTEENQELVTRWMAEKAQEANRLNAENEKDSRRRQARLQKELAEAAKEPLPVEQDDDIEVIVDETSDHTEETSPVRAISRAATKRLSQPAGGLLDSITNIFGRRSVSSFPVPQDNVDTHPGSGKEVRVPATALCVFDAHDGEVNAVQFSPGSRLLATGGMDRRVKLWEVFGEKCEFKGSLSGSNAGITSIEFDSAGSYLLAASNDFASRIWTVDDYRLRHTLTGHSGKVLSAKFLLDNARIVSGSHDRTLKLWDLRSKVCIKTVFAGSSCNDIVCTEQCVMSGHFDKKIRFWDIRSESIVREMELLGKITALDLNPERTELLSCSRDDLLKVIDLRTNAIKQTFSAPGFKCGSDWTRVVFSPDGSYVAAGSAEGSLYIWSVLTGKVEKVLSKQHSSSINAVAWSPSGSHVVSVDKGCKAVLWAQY
UniProt Q8WY36: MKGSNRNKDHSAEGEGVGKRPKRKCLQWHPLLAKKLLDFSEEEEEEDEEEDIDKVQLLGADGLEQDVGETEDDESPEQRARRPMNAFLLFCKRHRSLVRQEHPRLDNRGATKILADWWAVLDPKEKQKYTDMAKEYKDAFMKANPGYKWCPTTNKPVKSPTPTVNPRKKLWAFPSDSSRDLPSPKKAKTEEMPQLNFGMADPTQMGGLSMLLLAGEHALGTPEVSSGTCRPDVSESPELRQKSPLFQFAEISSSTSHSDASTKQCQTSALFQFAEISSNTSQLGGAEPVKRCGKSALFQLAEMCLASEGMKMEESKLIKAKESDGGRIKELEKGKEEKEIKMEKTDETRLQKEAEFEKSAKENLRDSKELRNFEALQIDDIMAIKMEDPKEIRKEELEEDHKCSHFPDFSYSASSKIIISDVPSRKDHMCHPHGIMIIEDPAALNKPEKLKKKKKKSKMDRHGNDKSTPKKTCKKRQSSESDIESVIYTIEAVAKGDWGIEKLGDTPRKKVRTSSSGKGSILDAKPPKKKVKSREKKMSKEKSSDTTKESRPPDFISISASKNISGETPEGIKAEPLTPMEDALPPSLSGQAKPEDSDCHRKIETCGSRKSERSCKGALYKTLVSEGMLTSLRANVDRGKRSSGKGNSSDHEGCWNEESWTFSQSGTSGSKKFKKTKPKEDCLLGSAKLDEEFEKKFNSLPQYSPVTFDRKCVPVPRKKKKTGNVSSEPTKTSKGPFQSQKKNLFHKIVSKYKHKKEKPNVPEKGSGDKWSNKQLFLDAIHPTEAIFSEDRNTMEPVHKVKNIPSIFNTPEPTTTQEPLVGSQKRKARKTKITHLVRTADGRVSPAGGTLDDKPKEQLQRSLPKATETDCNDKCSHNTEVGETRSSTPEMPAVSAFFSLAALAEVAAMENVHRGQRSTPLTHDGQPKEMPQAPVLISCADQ

| Target | log2 mean competition ratio |
| --- | --- |
| ATRX C1789 (UniProt P46100) | 0.0768 |
| ATM C2704 (UniProt Q13315) | -0.134 |
| ATXN10 C65 (UniProt Q9UBB4) | 0.198 |
| ASXL2 C266 (UniProt Q76L83) | -0.134 |
| BLZF1 C349 (UniProt Q9H2G9) | -0.234 |
| AURKA C8 (UniProt O14965) | 0.0584 |
| ATAD2 C484 (UniProt Q6PL18) | 0.0502 |
| BAHD1 C598 (UniProt Q8TBE0) | 0.121 |
| ATG4B C333 (UniProt Q9Y4P1) | -0.183 |
| ATRIP C238 (UniProt Q8WXE1) | 0.00799 |
| ATP2A2 C498 (UniProt P16615) | 0.132 |
| BAG5 C191 (UniProt Q9UL15) | 0.491 |
| AURKB C234 (UniProt Q96GD4) | -0.19 |
| ATP6V1H C73 (UniProt Q9UI12) | 0.0554 |
| BECN1 C353 (UniProt Q14457) | -0.00884 |
| BICD2 C437 (UniProt Q8TD16) | -0.39 |
| BDP1 C1299 (UniProt A6H8Y1) | -0.379 |
| ATG7 C406 (UniProt O95352) | -0.286 |
| BCR C240 (UniProt P11274) | -0.301 |
| ATP13A3 C920 (UniProt Q9H7F0) | 0.258 |
| BCDIN3D C97 (UniProt Q7Z5W3) | 0.0711 |
| ATG16L1 C506 (UniProt Q676U5) | -0.384 |
| BAZ1B C497 (UniProt Q9UIG0) | -0.0412 |
| BDP1 C689 (UniProt A6H8Y1) | -0.085 |
| BMPR2 C496 (UniProt Q13873) | -0.0759 |
| BBX C874 (UniProt Q8WY36) | -0.0842 |

Quoted at random: 2 entries already listed, in no set order.

| Target | log2 mean competition ratio |
| --- | --- |
| ATM C2704 (UniProt Q13315) | -0.134 |
| AURKA C8 (UniProt O14965) | 0.0584 |

From the supplement of paper PMC11732987, “Enantioselective OTUD7B fragment discovery through chemoproteomics screening and high-throughput optimisation” (Communications Chemistry, 2025)
